Patent publication US20080113918A1, “AGONIST POLYPEPTIDE OF RECEPTOR FOR ZOT AND ZONULIN” (University of Maryland - Baltimore, priority 2003, published 2008)
Part of at least one peptide drawing is inferred or uncertain, most often the ends. No end group written: not given here.

What was measured:
[1] = test system: PAR-2; assay: Double label co-localization immunofluorescence microscopy of FZI/0 and PAR-2 in Caco2 monolayers; format: binding; details: FITC-FZI/0 and mouse monoclonal anti-human PAR-2 antibodies
[2] = test system: Caco2 cell monolayers; assay: PAR-2 AP-induced actin rearrangement in Caco2 cell monolayers; format: cell-based, human; details: pre-incubation 2×10^−6M FZI/0; 10^−6M PAR-2 AP
Description: FIGS. 5A to 5D. Actin cytoskeleton arrangement in Caco2 cells exposed to PAR2-AP (FIG. 5A), BSA (FIG. 5B), PAR2-AP+FZI/0 (FIG. 5C), or PAR-2 AP+FZI/1 (FIG. 5D).
Effect of the Zot/zonulin inhibitor FZI/0 on PAR-2 AP-induced actin rearrangement. It has been recently reported that activation of PAR-2 receptor by PAR-2 AP promotes cytoskeletal reorganization (53). To establish whether this effect can be prevented by the synthetic Zot/zonulin peptide inhibitor, FZI/0, immunofluorescence studies were conducted in Caco2 cell monolayers. […] These cytoskeletal changes were blocked by the pre-incubation with 2×10^−6M FZI/0 (FIG. 5C), but not by the scrambled peptide FZI/1 (FIG. 5D). Therefore, PAR-2 AP and FZI/0 appear to bind to the identical structure on enterocytes.

[3] = test system: wild-type mouse intestinal tissues; assay: Intestinal TEER in wild-type mice tissues; details: preincubation with FZI/0
[4] = test system: mouse small intestine; assay: Microsnapwell assay, mouse small intestine TEER; details: pretreatment with FZI/0, then PAR-2 AP or MCP-II
[5] = test system: ileal tissue; assay: Tissue resistance (Rt) of ileal tissue mounted in Ussing chambers

GGVLVQPG [FZI/0] was tested, and the “colocalization with PAR-2 (immunofluorescence)” value [1] was “colocalization of the PAR-2 receptor and FZI/0 was evident”, the “effect of pre-incubation on PAR-2 AP-induced cytoskeletal changes” value [2] was “blocked” and the “effect of preincubation on PAR-2 AP- and ΔG-induced drop in intestinal resistance” value [3] was “reversed”. The “effect of pretreatment on PAR2-dependent TEER decrement” value [4] was “completely prevented” and the “changes in tissue Rt, peptide alone” value [5] was “No changes”.
